Drawing on article PMC8452729, this text covers binding for 1 molecule.

Chains of the proteins cited; added tags and fusions are not shown. Lines headed by an entry give the natural chain unless they say otherwise; changes in a name come on top. A line that says so, or that is headed by a name, gives the form on record, which may keep a tag or linker.
AR-V7 (androgen receptor splice variant 7) (human (endogenous in C4-2EnzR)) (P10275, form named): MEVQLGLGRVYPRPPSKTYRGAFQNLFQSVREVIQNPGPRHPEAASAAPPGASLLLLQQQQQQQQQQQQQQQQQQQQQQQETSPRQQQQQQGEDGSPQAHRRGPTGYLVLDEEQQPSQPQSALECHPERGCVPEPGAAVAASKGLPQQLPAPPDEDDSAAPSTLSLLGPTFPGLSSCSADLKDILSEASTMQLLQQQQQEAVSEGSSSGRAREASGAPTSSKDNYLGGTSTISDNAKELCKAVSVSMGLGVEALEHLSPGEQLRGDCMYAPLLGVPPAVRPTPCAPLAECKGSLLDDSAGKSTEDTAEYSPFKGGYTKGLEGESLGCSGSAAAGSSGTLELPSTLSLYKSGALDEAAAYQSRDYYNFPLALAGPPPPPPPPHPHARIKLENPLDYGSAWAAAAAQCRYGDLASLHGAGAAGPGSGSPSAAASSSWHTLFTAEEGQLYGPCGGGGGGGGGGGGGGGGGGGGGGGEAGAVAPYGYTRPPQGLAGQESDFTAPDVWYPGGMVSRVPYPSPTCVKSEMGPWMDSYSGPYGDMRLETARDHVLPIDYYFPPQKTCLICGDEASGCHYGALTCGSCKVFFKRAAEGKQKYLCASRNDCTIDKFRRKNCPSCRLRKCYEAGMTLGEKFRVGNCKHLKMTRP

Results are given in words; binding and its absence hold for the method and conditions named. In cells and extracts the contact can be indirect. Some binding calls cover weakened binding; strength is not graded here.

This assay has as its target AR-V7 (androgen receptor splice variant 7) (human (endogenous in C4-2EnzR)) (UniProt P10275). Briefly: co-IP; endogenous proteins in cell lysates (LNCaP-AI, C4-2; C4-2EnzR for Fig. 5F); AR IP antibody and USP22 WB antibody (Fig. 3I); Thermo Pierce Classic Magnetic IP/Co-IP Kit, western blot detection; cells with or without PCBP1-AS1 knock-down or rescue. In general terms: A western blot detects proteins with antibodies after separation by electrophoresis.

B1: USP22 (enzyme, UniProt Q9UPT9 1-525)
chain: MVSRPEPEGEAMDAELAVAPPGCSHLGSFKVDNWKQNLRAIYQCFVWSGTAEARKRKAKSCICHVCGVHLNRLHSCLYCVFFGCFTKKHIHEHAKAKRHNLAIDLMYGGIYCFLCQDYIYDKDMEIIAKEEQRKAWKMQGVGEKFSTWEPTKRELELLKHNPKRRKITSNCTIGLRGLINLGNTCFMNCIVQALTHTPLLRDFFLSDRHRCEMQSPSSCLVCEMSSLFQEFYSGHRSPHIPYKLLHLVWTHARHLAGYEQQDAHEFLIAALDVLHRHCKGDDNGKKANNPNHCNCIIDQIFTGGLQSDVTCQVCHGVSTTIDPFWDISLDLPGSSTPFWPLSPGSEGNVVNGESHVSGTTTLTDCLRRFTRPEHLGSSAKIKCSGCHSYQESTKQLTMKKLPIVACFHLKRFEHSAKLRRKITTYVSFPLELDMTPFMASSKESRMNGQYQQPTDSLNNDNKYSLFAVVNHQGTLESGHYTSFIRQHKDQWFKCDDAIITKASIKDVLDSEGYLLFYHKQFLEYE
Take B1: the binding result is recorded as “binds”.
